# Among all 330,000 compounds or so, about 7,700 (2.3%) were called active. The inconclusive results got no clear call from the source; some entries with a clear call stand among them for comparison. Calls follow the shape of the dose curve; as a rule, active = well fitted inhibition curve with a large enough effect; inconclusive = small, poorly fitted or top-dose-only effect, or effect the other way; inactive = flat fitted curve, though single readings scatter. Potencies of inconclusive entries are doubtful fits and often do not repeat.
# Assay: qHTS screen for small molecules that inhibit ELG1-dependent DNA repair in human embryonic kidney (HEK293T) cells expressing luciferase-tagged ELG1; also: nearly all actives have a fitted effect of over 55% in size
# Conditions: HEK293T ELG1-luciferase reporter, luminescence, 16 h, DNA damage induced by 5-fluorouridine; activity change, negative = inhibition: at 46.1 µM (top of the series)
# How it was run: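 Step one: seed 2,000 cells per well. Step two: pin-transfer compound or DMSO alongside 5-fluorouridine. Step three: incubate 16 hr, 37 °C, 5% CO2. Step four: add ONE-Glo, wait 30 min, read luminescence.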
# % is scaled to controls: 0 for no effect and ±100 for the full control effect; potency is read from the fitted curve at half-maximal effect.
SMILES,"activity change, negative = inhibition",Potency
COc1ccccc1NC(=O)c1ccc(NC(=O)Cc2n[nH]c(=O)c3ccccc23)cc1,inactive: 2.97%,–
O=C(CCCN1C(=O)/C(=C\c2cccs2)SC1=S)Nc1ccc(O)cc1,–,"inconclusive: 25.9 µM [inhibitor, single point]"
CCN(C(=O)COC(=O)CCNS(=O)(=O)c1ccccc1F)c1c(N)n(Cc2ccccc2)c(=O)[nH]c1=O,inactive: 11%,–
Cc1cccc(C)c1OCC(=O)NCc1ccccc1,–,"inconclusive: 18.3 µM [activator, partial curve, poor fit]"
CCN(CC)CCNC(=O)c1ccc(NC(=O)c2ccc(Cl)c(S(=O)(=O)Nc3ccccc3OC)c2)cc1,inactive: 3.01%,–
CC(OC(=O)C1=Cc2ccccc2OC1)C(=O)NC(C)(C)C (stereo unspecified),–,"inconclusive: 18.3 µM [inhibitor, single point]"
O=C(COC(=O)c1ccc(S(=O)(=O)N2CCOCC2)cc1)NCc1cccs1,inactive: -14%,–
O=C(/C=C/c1ccccc1)Nc1cccnc1Cl,–,"inconclusive: 3.98 µM [activator, partial curve]"
O=C(NCCc1nc2ccccc2[nH]1)/C(=C/c1ccc2c(c1)OCO2)NC(=O)c1ccccc1Cl,–,"inconclusive: 23.1 µM [inhibitor, single point]"
COc1ccc(-c2c3c(nc4sc(C(=O)Nc5cc(C)on5)c(N)c24)CCC3)cc1,–,"inconclusive: 25.9 µM [inhibitor, single point]"
Cc1cccn2c(/C=N/OCc3ccc(F)cc3)c(-c3ccc(Cl)cc3)nc12,inactive: 3.16%,–
COc1cc2c(cc1OC)CN(C(=O)CCCOc1ccc(Cl)cc1Cl)CC2,–,"inconclusive: 29.1 µM [inhibitor, single point]"
CCn1c2ccccc2c2cc(/C=N/NC(=O)c3ccc(O)cc3)ccc21,–,"inconclusive: 29.1 µM [inhibitor, single point]"
Nc1cccn2c(-c3ccc(Cl)cc3)cnc12,–,"inconclusive: 11.6 µM [activator, partial curve]"
CCn1cc(C2C(C(=O)Nc3cc(C)ccn3)=C(C)NC3=C2C(=O)CC(C)(C)C3)c(C)n1 (stereo unspecified),inactive: 0.678%,–
Cn1ncc(Cl)c1C(=O)NCc1cc(C(C)(C)C)n[nH]1,–,"inconclusive: 5.8 µM [inhibitor, full curve, poor fit]"
CC1Cc2ccccc2N1C(=O)Cn1c(=O)oc2cc(S(=O)(=O)N3CCCCC3)ccc21 (stereo unspecified),–,"inconclusive: 16.4 µM [inhibitor, single point]"
NC(=O)c1sc2nc(-c3ccco3)ccc2c1N,–,"inconclusive: 16.4 µM [activator, partial curve]"
CCCc1cc(N2CCOCC2)n2ncc(-c3ccccc3)c2n1,–,"inconclusive: 14.6 µM [activator, partial curve]"
CCOC(=O)c1sc(-c2ccc(Br)cc2)cc1N,–,"inconclusive: 18.4 µM [activator, partial curve]"
O=C(CSc1nnc(NC(=O)C2CC(=O)N(c3ccc(F)cc3)C2)s1)NCC1CCCO1 (stereo unspecified),inactive: 9.56%,–
CC(=O)NNc1ncnc2c1cnn2-c1ccc(C)c(C)c1,–,"inconclusive: 23.1 µM [activator, single point]"
Cc1c(NC(=O)c2ccc(S(=O)(=O)N3CCOCC3)cc2)c(=O)n(-c2ccccc2)n1C,inactive: 9%,–
COC(=O)c1c(C)nn(-c2ccc(F)c(Cl)c2)c1-c1cc(C)on1,–,"inconclusive: 23.1 µM [inhibitor, partial curve, poor fit]"

SMILES,"activity change, negative = inhibition",Potency
Cc1ccc(S(=O)(=O)N/N=c2\oc3ccccc3cc2C(=O)Nc2cccc(C)c2)cc1,–,"inconclusive: 7.31 µM [activator, partial curve]"
CC(=O)c1ccc(N2CCN(S(=O)(=O)c3c(C(=O)N4CCCC4)c(C)n(C)c3C)CC2)cc1,–,"inconclusive: 20.6 µM [activator, single point]"
CCN(CC)c1ccc(/C=N/NC(=O)c2c(Cl)cnn2C)c(O)c1,–,"inconclusive: 6.51 µM [inhibitor, single point]"
Cc1cccc(C(=O)OCC(=O)N(CC(C)C)c2c(N)n(Cc3ccccc3)c(=O)[nH]c2=O)c1C,inactive: 1.08%,–
COCCNC(=O)CSCc1cc(C)cc(C)c1,inactive: 12.3%,–
COc1ccc(Nc2nccc3c2nnn3C)cc1,–,"inconclusive: 5.8 µM [activator, partial curve]"
O=C(CNC(=O)N1CC(=O)Nc2ccccc21)Nc1cccc(F)c1,inactive: 14.5%,–
CCOC(=O)CSc1n[nH]c(-c2cccnc2)n1,inactive: 2.44%,–
COc1cc(NC(=S)NC(C)(C)C)c(OC)cc1Cl,–,"inconclusive: 16.4 µM [inhibitor, single point]"
O=C(CSc1ccc(-c2cccc([N+](=O)[O-])c2)nn1)N1CCCCC1,inactive: -3.49%,–
Oc1cccc(/C=N/c2c(-c3ccco3)nc3ccccn23)c1,–,"inconclusive: 20.6 µM [activator, partial curve]"
CC(C)(C)OC(=O)N[C@@H](CC(=O)OCc1ccccc1)C(=O)O,inactive: -3.63%,–
COCCCNc1nc(N)c([N+](=O)[O-])c(Nc2ccccc2OC)n1,–,"inconclusive: 7.3 µM [inhibitor, partial curve]"
COC(=O)/C(=C\c1ccc([N+](=O)[O-])o1)NC(=O)c1ccccc1,–,"inconclusive: 23.1 µM [inhibitor, single point]"
Cc1ccc(NC(=O)CCC(=O)NNC(=O)c2cccs2)cc1C,–,"inconclusive: 20.6 µM [activator, partial curve, poor fit]"
COC(=O)c1ccc(NC(=O)C2CCCN2S(=O)(=O)c2ccc(C)cc2)cc1 (stereo unspecified),–,"inconclusive: 23.1 µM [inhibitor, single point]"
CCOC(=O)c1c(CC(C)C)csc1/N=C/C1C(=O)CCCC1=O,inactive: -1.8%,–
Cc1cc(C)cc(NC(=O)N2CCCN(c3c(Cl)cncc3Cl)CC2)c1,–,"inconclusive: 5.17 µM [inhibitor, full curve]"
Cc1cccc([N+](=O)[O-])c1NC(=O)COC(=O)c1nc2nccc(C)n2n1,inactive: 14.2%,–
CN(CC(=O)Nc1c(Cl)cccc1Cl)C(=O)c1ccccc1-c1nc2ccccc2s1,–,"inconclusive: 29.1 µM [inhibitor, single point]"
O=C(NCCc1ccccc1)C1CCC(=O)N1C1CCCC1 (stereo unspecified),inactive: 5.16%,–
COc1ccc(Nc2nc(-c3sc(N)nc3C)cs2)cc1,–,"inconclusive: 23.1 µM [inhibitor, single point]"
O=c1cc(-c2ccc(OCc3ccccc3)cc2)oc2cc(OCc3ccccc3)cc(OCc3ccccc3)c12,inactive: 9.22%,–
COC(=O)[C@]1(Cc2ccccc2)N[C@H](CN(C)C(=O)COc2ccccc2)[C@@H]2C(=O)N(Cc3ccccc3)C(=O)[C@@H]21,inactive: -0.167%,–

SMILES,"activity change, negative = inhibition",Potency
CCC1(CC)NC(=O)N(CC(=O)OC(C)C(=O)Nc2ccccc2OC)C1=O (stereo unspecified),–,"inconclusive: 16.4 µM [activator, partial curve, poor fit]"
CN(C)CCCNCC(=O)Nc1ccccc1N1CCOCC1,inactive: -8.27%,–
COc1ccc(/C=C2\CCc3ccccc3C2=O)c(OC)c1OC,–,"inconclusive: 20.6 µM [activator, partial curve]"
O=c1cc(CN2CC(O)Cc3ccc4ccccc4c32)nc2sccn12 (stereo unspecified),–,"inconclusive: 25.9 µM [inhibitor, partial curve, poor fit]"
CC1(C)CC(NC(=O)COc2ccc(Cl)cc2Cl)CC(C)(C)N1,inactive: 8.42%,–
COc1ccccc1C(=O)NC(CCSC)C(=O)N1CCN(C/C=C/c2ccccc2)CC1 (stereo unspecified),–,"inconclusive: 29.1 µM [inhibitor, single point]"
CCOC(=O)/C(=C\C=C\N1CCOCC1)C(C)=O,–,"inconclusive: 23.1 µM [activator, partial curve, poor fit]"
C=CC(=O)Nc1cccc(Oc2ncnc3[nH]cc(-c4cnc5ccccc5c4)c23)c1,–,active: 7.3 µM
Cc1ccc(NC(=O)Cn2c(O)c(N=NC(=O)c3cc([N+](=O)[O-])ccc3O)c3ccccc32)cc1,–,"inconclusive: 23.1 µM [activator, partial curve]"
CC(C)(C)OC(=O)C1=C(CO)CS[C@@H]2[C@H](NC(=O)Cc3ccccc3)C(=O)N12,inactive: 11.9%,–
Cc1ccc(OCc2n[nH]c(=S)n2-c2ccccc2)cc1C,inactive: 6.47%,–
CC(c1cccs1)N(Cc1ccco1)C(=S)Nc1ccc(F)c(Cl)c1 (stereo unspecified),–,"inconclusive: 18.3 µM [inhibitor, single point]"
CC(C)Oc1cccc(C(=O)NC(=S)Nc2cccnc2)c1,–,"inconclusive: 14.6 µM [activator, partial curve]"
N[C@@H](Cc1ccccc1)c1nnc(SCc2ccccc2Cl)o1,–,"inconclusive: 31.6 µM [activator, single point]"
O=C(O)CCc1ccc(-c2cccs2)n1Cc1ccco1,inactive: 5.72%,–
N#Cc1ccc(C(=O)OCC(=O)N2CCCC2)cc1,inactive: 9.79%,–
CCN1CCN(c2cc(C(C)(C)C)nc3c(-c4ccccc4)c(C)nn23)CC1,inactive: 29.6%,–
O=C(Cn1c(=O)c2cccn2c2ccccc21)NCCc1ccc(Cl)cc1,–,"inconclusive: 29.1 µM [activator, single point]"
CCOc1ccc(NC(=O)Nc2cc(-c3ccccc3)sc2C(=O)OC)cc1,–,"inconclusive: 2.31 µM [inhibitor, partial curve]"
COc1ccc(-c2cc(N)n(S(=O)(=O)c3ccc(F)cc3)n2)cc1OC,–,active: 5.8 µM
CCCCN1C(=O)C2Cc3c([nH]c4ccccc34)CN2C1=S (stereo unspecified),–,"inconclusive: 0.58 µM [activator, partial curve, poor fit]"
CCc1nnc(NC(=O)CSc2nccn2-c2cccc(C)c2C)s1,–,active: 9.2 µM
CCCCCCN(C(=O)CCl)c1ccccc1,–,"inconclusive: 23.1 µM [activator, partial curve]"

# Pulled one by one from the list above:
SMILES,"activity change, negative = inhibition",Potency
COc1ccccc1C(=O)NC(CCSC)C(=O)N1CCN(C/C=C/c2ccccc2)CC1 (stereo unspecified),–,"inconclusive: 29.1 µM [inhibitor, single point]"
C=CC(=O)Nc1cccc(Oc2ncnc3[nH]cc(-c4cnc5ccccc5c4)c23)c1,–,active: 7.3 µM
COc1ccc(/C=C2\CCc3ccccc3C2=O)c(OC)c1OC,–,"inconclusive: 20.6 µM [activator, partial curve]"
CCN1CCN(c2cc(C(C)(C)C)nc3c(-c4ccccc4)c(C)nn23)CC1,inactive: 29.6%,–
N#Cc1ccc(C(=O)OCC(=O)N2CCCC2)cc1,inactive: 9.79%,–
